# Source: the supplement of paper PMC12823440, “Inhibitors supercharge kinase turnover through native proteolytic circuits” (Nature, 2025)
# Chains of the proteins cited; added tags and fusions are not shown. Lines headed by an entry give the natural chain unless they say otherwise; changes in a name come on top.
# UniProt P36888, whole entry: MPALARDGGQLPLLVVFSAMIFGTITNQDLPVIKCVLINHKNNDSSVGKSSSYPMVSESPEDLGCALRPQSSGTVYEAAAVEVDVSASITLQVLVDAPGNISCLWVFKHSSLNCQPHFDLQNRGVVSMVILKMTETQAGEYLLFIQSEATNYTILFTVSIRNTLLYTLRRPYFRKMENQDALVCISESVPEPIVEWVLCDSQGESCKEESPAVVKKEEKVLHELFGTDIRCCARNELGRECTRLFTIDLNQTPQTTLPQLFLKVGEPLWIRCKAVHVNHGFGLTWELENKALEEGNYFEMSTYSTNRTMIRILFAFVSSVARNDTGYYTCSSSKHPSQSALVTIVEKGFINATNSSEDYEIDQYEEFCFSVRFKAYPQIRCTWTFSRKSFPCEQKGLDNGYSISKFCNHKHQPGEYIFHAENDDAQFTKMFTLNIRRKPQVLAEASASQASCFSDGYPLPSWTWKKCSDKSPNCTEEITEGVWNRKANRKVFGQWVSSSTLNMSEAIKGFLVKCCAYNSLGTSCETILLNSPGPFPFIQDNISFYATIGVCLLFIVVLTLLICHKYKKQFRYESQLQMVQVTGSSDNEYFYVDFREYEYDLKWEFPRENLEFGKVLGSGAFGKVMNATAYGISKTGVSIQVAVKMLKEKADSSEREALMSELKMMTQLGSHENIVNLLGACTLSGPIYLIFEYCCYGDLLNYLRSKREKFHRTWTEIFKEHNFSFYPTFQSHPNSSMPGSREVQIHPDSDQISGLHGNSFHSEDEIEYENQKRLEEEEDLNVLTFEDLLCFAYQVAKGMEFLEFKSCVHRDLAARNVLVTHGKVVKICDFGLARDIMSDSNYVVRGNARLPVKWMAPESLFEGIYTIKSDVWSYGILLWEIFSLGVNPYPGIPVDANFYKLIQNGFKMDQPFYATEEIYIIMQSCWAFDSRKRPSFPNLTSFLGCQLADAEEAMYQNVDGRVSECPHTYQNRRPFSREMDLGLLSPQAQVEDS
# UniProt P06241, whole entry, looked up: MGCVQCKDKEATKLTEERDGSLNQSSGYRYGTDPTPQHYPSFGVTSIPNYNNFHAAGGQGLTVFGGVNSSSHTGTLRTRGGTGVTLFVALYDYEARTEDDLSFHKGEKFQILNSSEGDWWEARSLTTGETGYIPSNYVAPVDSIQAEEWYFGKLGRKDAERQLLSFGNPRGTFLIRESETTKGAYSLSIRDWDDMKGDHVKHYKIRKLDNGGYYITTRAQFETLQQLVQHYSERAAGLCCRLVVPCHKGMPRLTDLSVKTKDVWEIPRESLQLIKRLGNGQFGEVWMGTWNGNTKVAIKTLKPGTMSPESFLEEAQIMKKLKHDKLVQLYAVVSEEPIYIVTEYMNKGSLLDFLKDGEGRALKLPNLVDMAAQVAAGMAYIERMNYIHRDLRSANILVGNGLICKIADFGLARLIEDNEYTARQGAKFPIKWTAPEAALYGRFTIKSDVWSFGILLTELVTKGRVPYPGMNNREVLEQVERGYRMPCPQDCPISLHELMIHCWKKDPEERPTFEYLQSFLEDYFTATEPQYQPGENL
# UniProt P49840: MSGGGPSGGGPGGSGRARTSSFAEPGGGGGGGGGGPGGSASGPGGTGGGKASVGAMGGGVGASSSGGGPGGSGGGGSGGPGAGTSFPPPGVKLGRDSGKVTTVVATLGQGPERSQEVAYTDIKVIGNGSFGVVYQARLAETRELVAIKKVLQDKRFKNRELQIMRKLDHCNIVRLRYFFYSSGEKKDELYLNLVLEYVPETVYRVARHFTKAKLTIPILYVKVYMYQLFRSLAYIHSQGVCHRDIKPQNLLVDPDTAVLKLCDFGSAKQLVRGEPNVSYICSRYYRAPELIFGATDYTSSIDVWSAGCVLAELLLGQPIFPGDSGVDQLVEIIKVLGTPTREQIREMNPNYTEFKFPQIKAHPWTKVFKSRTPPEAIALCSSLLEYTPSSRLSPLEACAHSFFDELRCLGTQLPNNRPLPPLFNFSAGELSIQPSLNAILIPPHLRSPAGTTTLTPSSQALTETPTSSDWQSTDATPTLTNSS
# UniProt P14616: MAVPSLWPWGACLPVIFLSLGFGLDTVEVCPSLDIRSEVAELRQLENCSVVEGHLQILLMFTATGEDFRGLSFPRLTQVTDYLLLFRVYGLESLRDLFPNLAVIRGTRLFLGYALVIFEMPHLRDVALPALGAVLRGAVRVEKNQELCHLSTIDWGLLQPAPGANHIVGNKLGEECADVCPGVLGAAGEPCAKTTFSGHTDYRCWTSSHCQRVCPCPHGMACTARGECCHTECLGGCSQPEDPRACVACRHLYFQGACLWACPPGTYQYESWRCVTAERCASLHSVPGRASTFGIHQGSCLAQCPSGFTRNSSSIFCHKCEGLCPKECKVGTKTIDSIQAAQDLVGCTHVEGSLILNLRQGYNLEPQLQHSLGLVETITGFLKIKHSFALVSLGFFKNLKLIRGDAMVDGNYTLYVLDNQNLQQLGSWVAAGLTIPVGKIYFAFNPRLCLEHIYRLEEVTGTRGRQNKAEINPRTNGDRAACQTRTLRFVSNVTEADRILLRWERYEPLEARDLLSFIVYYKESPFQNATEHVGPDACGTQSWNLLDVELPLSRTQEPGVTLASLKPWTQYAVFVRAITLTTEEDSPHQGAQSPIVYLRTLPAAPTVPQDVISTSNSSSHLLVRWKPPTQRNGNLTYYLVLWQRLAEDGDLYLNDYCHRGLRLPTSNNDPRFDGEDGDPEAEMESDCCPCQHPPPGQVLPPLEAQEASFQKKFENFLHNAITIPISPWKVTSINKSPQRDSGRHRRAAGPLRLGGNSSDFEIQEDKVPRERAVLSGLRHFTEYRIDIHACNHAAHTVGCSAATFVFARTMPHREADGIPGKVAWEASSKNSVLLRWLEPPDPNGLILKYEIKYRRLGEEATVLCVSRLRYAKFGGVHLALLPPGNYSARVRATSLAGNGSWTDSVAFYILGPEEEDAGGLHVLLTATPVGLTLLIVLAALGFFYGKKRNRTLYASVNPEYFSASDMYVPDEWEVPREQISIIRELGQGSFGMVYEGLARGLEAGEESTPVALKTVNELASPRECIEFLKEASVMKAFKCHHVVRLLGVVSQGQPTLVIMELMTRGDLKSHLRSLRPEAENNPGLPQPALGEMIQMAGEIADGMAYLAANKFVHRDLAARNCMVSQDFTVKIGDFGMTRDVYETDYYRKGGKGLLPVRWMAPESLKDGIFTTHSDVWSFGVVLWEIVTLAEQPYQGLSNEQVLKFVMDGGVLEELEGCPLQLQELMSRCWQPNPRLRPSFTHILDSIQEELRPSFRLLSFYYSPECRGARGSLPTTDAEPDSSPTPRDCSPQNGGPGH
# UniProt Q9Y616: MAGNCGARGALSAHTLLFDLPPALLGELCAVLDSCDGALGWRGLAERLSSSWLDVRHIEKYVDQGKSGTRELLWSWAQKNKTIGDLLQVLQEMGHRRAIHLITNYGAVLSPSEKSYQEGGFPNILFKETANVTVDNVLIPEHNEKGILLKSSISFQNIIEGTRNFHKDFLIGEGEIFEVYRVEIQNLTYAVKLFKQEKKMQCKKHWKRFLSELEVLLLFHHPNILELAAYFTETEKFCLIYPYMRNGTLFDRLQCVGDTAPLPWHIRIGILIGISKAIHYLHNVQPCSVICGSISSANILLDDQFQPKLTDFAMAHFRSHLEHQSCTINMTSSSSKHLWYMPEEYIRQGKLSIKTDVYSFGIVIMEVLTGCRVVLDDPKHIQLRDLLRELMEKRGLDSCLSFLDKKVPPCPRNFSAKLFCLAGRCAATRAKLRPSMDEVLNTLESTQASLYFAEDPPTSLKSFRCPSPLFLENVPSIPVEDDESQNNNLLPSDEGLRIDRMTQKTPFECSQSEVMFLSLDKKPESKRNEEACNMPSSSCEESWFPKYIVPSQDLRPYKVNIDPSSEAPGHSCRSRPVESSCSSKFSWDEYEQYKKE
# UniProt P23458: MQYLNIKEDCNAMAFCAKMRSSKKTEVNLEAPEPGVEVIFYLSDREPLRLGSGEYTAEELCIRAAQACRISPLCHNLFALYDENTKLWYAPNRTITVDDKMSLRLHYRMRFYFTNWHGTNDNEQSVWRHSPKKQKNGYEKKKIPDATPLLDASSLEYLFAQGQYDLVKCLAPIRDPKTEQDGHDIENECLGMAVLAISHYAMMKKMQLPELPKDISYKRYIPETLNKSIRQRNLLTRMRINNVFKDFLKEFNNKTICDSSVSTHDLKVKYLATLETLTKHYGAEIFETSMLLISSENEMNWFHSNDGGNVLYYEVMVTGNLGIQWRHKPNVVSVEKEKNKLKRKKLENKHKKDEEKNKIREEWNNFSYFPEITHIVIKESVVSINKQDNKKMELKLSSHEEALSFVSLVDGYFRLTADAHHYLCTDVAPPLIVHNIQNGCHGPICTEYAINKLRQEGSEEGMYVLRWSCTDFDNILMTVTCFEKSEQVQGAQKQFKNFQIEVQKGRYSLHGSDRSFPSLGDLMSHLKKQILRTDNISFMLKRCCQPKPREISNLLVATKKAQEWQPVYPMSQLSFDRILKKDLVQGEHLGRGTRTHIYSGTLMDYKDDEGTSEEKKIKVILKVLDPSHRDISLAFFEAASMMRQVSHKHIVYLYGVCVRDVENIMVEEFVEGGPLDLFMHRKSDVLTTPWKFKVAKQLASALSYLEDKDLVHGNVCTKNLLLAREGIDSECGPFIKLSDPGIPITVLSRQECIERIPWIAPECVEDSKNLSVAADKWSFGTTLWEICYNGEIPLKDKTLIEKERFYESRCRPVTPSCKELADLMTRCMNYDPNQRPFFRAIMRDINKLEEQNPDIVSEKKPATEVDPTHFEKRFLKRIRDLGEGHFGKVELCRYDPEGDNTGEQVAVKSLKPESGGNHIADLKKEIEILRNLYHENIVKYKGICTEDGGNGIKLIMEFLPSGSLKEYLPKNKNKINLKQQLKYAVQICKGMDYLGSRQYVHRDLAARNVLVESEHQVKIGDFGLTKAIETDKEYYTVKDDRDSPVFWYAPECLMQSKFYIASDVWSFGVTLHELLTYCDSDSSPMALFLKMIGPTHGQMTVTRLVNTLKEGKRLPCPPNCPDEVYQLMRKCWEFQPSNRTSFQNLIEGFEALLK
# UniProt P53667: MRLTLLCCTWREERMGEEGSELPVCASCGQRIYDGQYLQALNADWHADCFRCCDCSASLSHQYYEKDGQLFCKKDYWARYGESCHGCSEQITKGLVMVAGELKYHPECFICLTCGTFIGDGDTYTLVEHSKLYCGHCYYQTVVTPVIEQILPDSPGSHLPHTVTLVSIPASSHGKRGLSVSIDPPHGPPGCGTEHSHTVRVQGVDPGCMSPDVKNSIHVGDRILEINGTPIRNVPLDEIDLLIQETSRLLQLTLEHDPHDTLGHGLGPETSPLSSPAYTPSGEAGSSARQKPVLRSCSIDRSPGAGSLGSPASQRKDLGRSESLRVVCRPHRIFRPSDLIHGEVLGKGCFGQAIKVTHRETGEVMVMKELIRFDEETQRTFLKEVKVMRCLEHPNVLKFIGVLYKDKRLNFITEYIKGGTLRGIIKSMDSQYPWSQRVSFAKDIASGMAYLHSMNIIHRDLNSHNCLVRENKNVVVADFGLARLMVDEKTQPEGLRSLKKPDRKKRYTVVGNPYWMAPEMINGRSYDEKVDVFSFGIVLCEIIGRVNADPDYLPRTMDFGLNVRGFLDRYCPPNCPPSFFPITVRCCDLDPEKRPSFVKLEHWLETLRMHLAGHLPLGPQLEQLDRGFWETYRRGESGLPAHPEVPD
# UniProt P53671: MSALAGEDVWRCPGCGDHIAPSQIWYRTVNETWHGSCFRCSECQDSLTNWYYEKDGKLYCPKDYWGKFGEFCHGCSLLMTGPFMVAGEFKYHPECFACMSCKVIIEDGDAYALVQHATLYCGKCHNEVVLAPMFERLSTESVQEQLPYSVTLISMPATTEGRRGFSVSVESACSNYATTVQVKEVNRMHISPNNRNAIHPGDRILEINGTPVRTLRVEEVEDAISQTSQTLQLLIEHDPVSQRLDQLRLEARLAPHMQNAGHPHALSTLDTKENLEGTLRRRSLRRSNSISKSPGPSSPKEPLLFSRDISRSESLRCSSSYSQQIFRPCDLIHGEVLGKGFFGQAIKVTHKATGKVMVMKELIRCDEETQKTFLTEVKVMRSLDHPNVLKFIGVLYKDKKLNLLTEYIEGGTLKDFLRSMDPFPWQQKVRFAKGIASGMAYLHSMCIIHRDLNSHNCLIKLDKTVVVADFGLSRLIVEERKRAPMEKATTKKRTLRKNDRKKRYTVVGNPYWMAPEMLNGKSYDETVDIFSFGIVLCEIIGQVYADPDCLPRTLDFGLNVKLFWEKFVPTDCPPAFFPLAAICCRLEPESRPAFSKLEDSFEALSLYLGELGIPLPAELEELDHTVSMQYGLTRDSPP
# Structures can show the parent of a compound that is named as a salt. This is one part of the list. Hit calls seldom repeat between salt and free forms of one compound.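 In K562 cells expressing nanoluciferase-fused kinases, luminescence was recorded at 4 h intervals between 2 and 18 h, normalized as percent of control with DMSO at 100% and a positive control at 0%. A significant (2 sigma) signal drop marks a time point as decreased. The authors' rule for a hit is not shown and takes in more than the number of time points.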
# Columns and labels:
# Test in all cases: number of time points (of 5) at which kinase-Nluc abundance scored as decreased, DMSO-normalised (count); higher = more persistent destabilization
# Conditions in all cases: K562; 2-18 h
# FLT3 = FLT3 (UniProt P36888)
# FYN = FYN (UniProt P06241)
# GSK3A = GSK3A (UniProt P49840)
# HER2 = HER2 (UniProt P04626)
# INSRR = INSRR (UniProt P14616)
# IRAK3 = IRAK3 (UniProt Q9Y616)
# JAK1 = JAK1 (UniProt P23458)
# LCK = LCK (UniProt P06239)
# LIMK1 = LIMK1 (UniProt P53667)
# LIMK2 = LIMK2 (UniProt P53671)
SMILES,number of time points (FLT3),number of time points (FYN),number of time points (GSK3A),number of time points (HER2),number of time points (INSRR),number of time points (IRAK3),number of time points (JAK1),number of time points (LCK),number of time points (LIMK1),number of time points (LIMK2)
CC(=O)c1c(C)cc2cccc(O)c2c1O [Nepodin] (10 µM),0,0,0,0,0,0,0,0,0,0
CC(=O)NC1CC(n2cnc(NC(=O)Cc3ccc4ccccc4c3)c2)C1 (configuration not stated) (10 µM),0,0,0,0,0,0,0,0,0,0
CC#CC(=O)Nc1ccc2ncnc(Nc3cccc(Br)c3)c2c1 (10 µM),0,0,0,4,0,0,0,0,2,0
CC1CCc2c(cc(Br)c(F)c2Br)N1C=O (configuration not stated) (10 µM),0,0,0,0,0,0,0,0,0,0
Cc1cc(=O)oc2c(C=O)c(O)ccc12 (10 µM),0,0,0,0,0,0,0,0,0,0
Oc1ccc(Nc2nc(-c3ccc(Cl)cc3)cs2)cc1 (10 µM),0,0,0,0,0,0,0,0,0,0
CN(C)CCCOc1ccc(-c2ccc3ncc4c(c3c2)n(C2CCOCC2)c(=O)n4C)cn1 (2 µM),0,0,0,0,0,0,0,0,1,0
C[C@@H]1CCN(C(=O)CC#N)C[C@@H]1N(C)c1ncnc2[nH]ccc12 [Tofacitinib] (10 µM),0,0,0,0,0,0,,0,0,0
O=C(NCCN1CCOCC1)c1cc2c(Oc3ccc(NC(=O)C4(C(=O)Nc5ccc(F)cc5)CC4)cc3)ccnc2[nH]1 [Tyrosine kinase inhibitor] (10 µM),0,0,0,0,0,0,0,0,0,0
CS(=O)(=O)Nc1cc(-c2ccc3ncnc(Nc4ccc(F)c(Cl)c4)c3c2)cnc1Cl (2.5 µM),2,1,0,0,0,2,0,0,0,0
O=Nc1c(-c2c(O)[nH]c3ccc(F)cc23)[nH]c2ccccc12 [5'-Fluoroindirubinoxime] (10 µM),0,0,0,0,0,0,0,0,0,0
Oc1cc(O)c2cc(O)c(-c3cc(O)c(O)c(O)c3)[o+]c2c1 [Delphinidin (chloride)] (10 µM),0,1,0,0,0,2,0,0,0,4
COc1cc(Nc2ncc(F)c(Nc3ccc4c(n3)NC(=O)C(C)(C)O4)n2)cc(OC)c1OC [R406 (free base)] (10 µM),0,,0,0,0,0,0,,0,0
Cc1ccc2nc(NCCN)c3ncc(C)n3c2c1 (2.5 µM),0,0,0,0,0,0,0,0,0,0
C[C@@H]1CCN(C(=O)CC#N)C[C@@H]1N(C)c1ncnc2[nH]ccc12 [Tofacitinib (citrate)] (10 µM),0,0,0,0,0,0,,0,0,0
Nc1ncnc2c1c(-c1ccc(Oc3ccccc3)cc1)nn2C1CCCC1 (2.5 µM),0,0,0,0,0,0,0,0,0,0
C=CC(=O)Nc1cccc(Nc2nc(Nc3ccc(N4CCN(C(C)=O)CC4)cc3OC)ncc2C(F)(F)F)c1 [Rociletinib] (10 µM),0,0,0,4,1,0,1,0,0,0

# Quoted from above (two entries):
SMILES,number of time points (FLT3),number of time points (FYN),number of time points (GSK3A),number of time points (HER2),number of time points (INSRR),number of time points (IRAK3),number of time points (JAK1),number of time points (LCK),number of time points (LIMK1),number of time points (LIMK2)
Cc1ccc2nc(NCCN)c3ncc(C)n3c2c1 (2.5 µM),0,0,0,0,0,0,0,0,0,0
C[C@@H]1CCN(C(=O)CC#N)C[C@@H]1N(C)c1ncnc2[nH]ccc12 [Tofacitinib (citrate)] (10 µM),0,0,0,0,0,0,,0,0,0

# Remaining list, next part.

SMILES,number of time points (FLT3),number of time points (FYN),number of time points (GSK3A),number of time points (HER2),number of time points (INSRR),number of time points (IRAK3),number of time points (JAK1),number of time points (LCK),number of time points (LIMK1),number of time points (LIMK2)
CCS(=O)(=O)c1ncc(Cl)c(C(=O)N(Cc2ccc(Cl)cc2)Cc2ccco2)n1 (2.5 µM),0,5,0,0,0,3,0,0,0,0
Cc1cc(Nc2ncnc3ccc(NC4=NC(C)(C)CO4)cc23)ccc1Oc1ccn2ncnc2c1 [Tucatinib (hemiethanolate)] (2.5 µM),0,0,0,0,0,0,0,0,0,0
COc1cc(Nc2ncc(F)c(Nc3ccc4c(n3)NC(=O)C(C)(C)O4)n2)cc(OC)c1OC (10 µM),0,,0,0,0,0,0,,0,0
C=CC(=O)Nc1cccc(Nc2nc(Nc3ccc(N4CCN(C(C)=O)CC4)cc3OC)ncc2C(F)(F)F)c1 [Rociletinib hydrobromide] (10 µM),0,0,0,4,0,0,0,0,0,0
FC(F)(F)c1ccc(CNc2ccc(Cc3c[nH]c4ncccc34)cn2)cc1 (10 µM),0,0,0,0,0,0,0,0,0,0
COc1ccc(Cl)c(Nc2nc3ccccc3nc2NS(=O)(=O)c2cccc(NC(=O)C(C)(C)N)c2)c1 [Pilaralisib] (10 µM),0,0,0,0,0,0,0,0,0,0
O=c1[nH]c(=O)n([C@@H]2O[C@H](CO)[C@@H](O)[C@@H]2O)cc1/C=C/Br [Sorivudine] (10 µM),0,0,0,0,0,0,0,0,0,0
Cc1[nH]c(/C=C2\C(=O)Nc3ccccc32)c(C)c1CCC(=O)O [(Z)-Orantinib] (10 µM),0,0,0,0,0,0,0,0,0,0
CNC(=O)c1c(F)cccc1Nc1nc(Nc2cc3c(cc2OC)CCN3C(=O)CN(C)C)nc2[nH]ccc12 (10 µM),0,0,0,0,0,0,0,0,0,0
COc1cc2c(N3CCN(C(=O)Nc4ccc(OC(C)C)cc4)CC3)ncnc2cc1OCCCN1CCCCC1 [Tandutinib] (10 µM),,0,0,0,0,0,0,0,0,0
Cc1ccc(OCCSc2ncccn2)c(Br)c1 [ZLN024 (hydrochloride)] (10 µM),0,0,0,0,0,0,0,0,0,0
Cc1[nH]c(/C=C2\C(=O)Nc3ccc(F)cc32)c(C)c1C(=O)N[C@H]1CCN(C(=O)N(C)C)C1 [Vorolanib] (10 µM),0,0,0,0,0,0,0,0,0,0
COc1cc2c(N3CCN(C(=O)Nc4ccc(OC(C)C)cc4)CC3)ncnc2cc1OCCCN1CCCCC1 [Tandutinib (hydrochloride)] (10 µM),,0,0,0,0,0,0,0,0,0
CCNc1nc(Nc2cc(F)c(C(=O)N3CCOCC3)cc2OC)ncc1C(F)(F)F [GNE-7915 (tosylate)] (10 µM),0,0,0,0,0,0,0,0,0,0
CCc1cc2c(cc1N1CCC(N3CCOCC3)CC1)C(C)(C)c1[nH]c3cc(C#N)ccc3c1C2=O [Alectinib] (10 µM),0,0,0,0,0,0,0,0,0,0
CNC(=O)c1ccc(C)c(-n2c(C)cc(OCc3ccc(F)cc3F)c(Br)c2=O)c1 (10 µM),0,0,0,0,0,0,0,0,0,0
